Experimental data taken from patent US20050233413A1, “Neuroprotective polypeptides and methods of use” (priority 2002, published 2005).
Results are given in words; binding and its absence hold for the method and conditions named. Binding seen in cells or lysates may run through a third protein. Some results given as binding are weak or reduced against the parent protein; the word gives no strength. Tags and fused reporters may be left off the sequences shown.

Tests used:
(His)6-HN [1] = target: T1, (His)6-HN; assay: Ni-bead pull-down, anti-FLAG immunoblot
T1 sequence (peptide): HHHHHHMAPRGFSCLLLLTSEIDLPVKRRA

(His)6-HN [2] = target: T1, (His)6-HN; assay: Ni-bead pull-down of distinctly tagged peptides
(His)6-HN [3] = target: T1, (His)6-HN; assay: competition in Ni-bead pull-down; competitor of HN-FLAG
(His)6-EFLIVIKS-(S7A)HN [4] = target: T2, (His)6-EFLIVIKS-(S7A)HN; assay: Ni-bead pull-down, anti-FLAG immunoblot
T2 sequence (peptide): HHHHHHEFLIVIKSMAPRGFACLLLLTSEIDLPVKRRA

(His)6-EFLIVIKS-(S7A)HN [5] = target: T2, (His)6-EFLIVIKS-(S7A)HN; assay: Ni-bead pull-down of distinctly tagged peptides
(His)6-EFLIVIKS-(S7A)HN [6] = target: T2, (His)6-EFLIVIKS-(S7A)HN; assay: competition in Ni-bead pull-down; competitor of EF-(S7A)HN-FLAG

B1: HN-DYKDDDDK (HNFLAG) (peptide)
peptide: MAPRGFSCLLLLTSEIDLPVKRRADYKDDDDK
Question: With B1 as the binder, how does the binding ((His)6-HN [1]) read?
Answer: binds

Question: And the binding ((His)6-HN [2])?
Answer: binds

B2: (S14G)HN (peptide)
peptide: MAPRGFSCLLLLTGEIDLPVKRRA
Question: For B2, which binding ((His)6-HN [3]) is on record?
Answer: binds

B3: EFLIVIKS-(S7A)HN-DYKDDDDK (EF-S7A-FLAG) (peptide)
peptide: EFLIVIKSMAPRGFACLLLLTSEIDLPVKRRADYKDDDDK
Question: For B3, which binding ((His)6-EFLIVIKS-(S7A)HN [4]) is on record?
Answer: binds

Question: And the binding ((His)6-EFLIVIKS-(S7A)HN [5])?
Answer: binds

B4: Humanin (HN), tag-free (peptide)
peptide: MAPRGFSCLLLLTSEIDLPVKRRA
Question: For B4, which binding ((His)6-HN [3]) is on record?
Answer: binds

B5: EFLIVIKS (peptide)
peptide: EFLIVIKS
Question: How did the binding ((His)6-EFLIVIKS-(S7A)HN [6]) turn out when B5 was run?
Answer: binds
